Article PMC8170441
No constants are given. Whether binding was seen depends on the method and setting. Binding seen in cells or lysates may run through a third protein. Some binding calls cover weakened binding; strength is not graded here. For some of these results: Where a sequence is shown, tags or fusion partners need not be part of it.

Protein sequences, listed by entry. Tags and fused reporters are not part of them. Lines headed by an entry give the natural chain unless they say otherwise; changes in a name come on top. Chains listed by the source or under a name are the forms on record and can include a tag or linker.
p97-E578Q-Strep (dominant-negative, substrate-trapping p97 variant) (P55072, form named): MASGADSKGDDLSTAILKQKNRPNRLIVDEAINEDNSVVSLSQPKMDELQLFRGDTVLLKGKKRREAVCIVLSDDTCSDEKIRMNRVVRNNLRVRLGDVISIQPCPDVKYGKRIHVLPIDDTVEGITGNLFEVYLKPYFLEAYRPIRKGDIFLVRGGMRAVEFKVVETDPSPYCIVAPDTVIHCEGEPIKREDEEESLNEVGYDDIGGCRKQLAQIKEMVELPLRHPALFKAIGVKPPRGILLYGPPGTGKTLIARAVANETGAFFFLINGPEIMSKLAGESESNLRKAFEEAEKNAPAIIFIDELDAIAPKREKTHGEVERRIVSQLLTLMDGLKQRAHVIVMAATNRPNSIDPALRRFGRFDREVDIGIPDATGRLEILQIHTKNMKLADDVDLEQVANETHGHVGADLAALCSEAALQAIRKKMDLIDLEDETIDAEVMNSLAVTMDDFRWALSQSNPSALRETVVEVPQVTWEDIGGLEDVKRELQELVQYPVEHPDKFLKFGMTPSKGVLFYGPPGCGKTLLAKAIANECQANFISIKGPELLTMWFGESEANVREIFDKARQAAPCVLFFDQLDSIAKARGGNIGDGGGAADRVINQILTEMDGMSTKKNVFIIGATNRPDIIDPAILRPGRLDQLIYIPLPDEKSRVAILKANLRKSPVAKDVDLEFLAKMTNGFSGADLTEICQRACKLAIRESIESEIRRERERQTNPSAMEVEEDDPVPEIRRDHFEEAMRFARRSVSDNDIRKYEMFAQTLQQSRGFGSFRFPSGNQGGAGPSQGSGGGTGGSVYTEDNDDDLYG
UniProt O60934: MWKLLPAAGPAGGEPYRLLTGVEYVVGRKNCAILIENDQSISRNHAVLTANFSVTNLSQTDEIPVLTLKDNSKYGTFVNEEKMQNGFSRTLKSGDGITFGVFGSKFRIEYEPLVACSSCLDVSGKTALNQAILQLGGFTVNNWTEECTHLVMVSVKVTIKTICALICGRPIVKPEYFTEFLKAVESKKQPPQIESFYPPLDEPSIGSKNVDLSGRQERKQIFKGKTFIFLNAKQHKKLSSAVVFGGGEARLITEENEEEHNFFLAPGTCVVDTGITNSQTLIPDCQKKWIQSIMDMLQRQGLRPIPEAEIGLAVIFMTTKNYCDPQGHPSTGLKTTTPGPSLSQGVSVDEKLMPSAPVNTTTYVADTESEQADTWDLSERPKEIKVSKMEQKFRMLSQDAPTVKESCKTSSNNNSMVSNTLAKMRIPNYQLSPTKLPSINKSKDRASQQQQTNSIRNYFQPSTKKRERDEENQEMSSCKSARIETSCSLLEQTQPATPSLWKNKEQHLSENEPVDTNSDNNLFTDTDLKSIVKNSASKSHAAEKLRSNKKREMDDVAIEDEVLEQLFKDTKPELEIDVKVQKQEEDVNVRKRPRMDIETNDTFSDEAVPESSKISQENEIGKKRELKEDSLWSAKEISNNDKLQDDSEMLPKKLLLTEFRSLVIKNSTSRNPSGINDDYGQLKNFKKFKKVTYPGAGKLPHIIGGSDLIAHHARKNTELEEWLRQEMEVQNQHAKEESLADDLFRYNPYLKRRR
UniProt Q92878: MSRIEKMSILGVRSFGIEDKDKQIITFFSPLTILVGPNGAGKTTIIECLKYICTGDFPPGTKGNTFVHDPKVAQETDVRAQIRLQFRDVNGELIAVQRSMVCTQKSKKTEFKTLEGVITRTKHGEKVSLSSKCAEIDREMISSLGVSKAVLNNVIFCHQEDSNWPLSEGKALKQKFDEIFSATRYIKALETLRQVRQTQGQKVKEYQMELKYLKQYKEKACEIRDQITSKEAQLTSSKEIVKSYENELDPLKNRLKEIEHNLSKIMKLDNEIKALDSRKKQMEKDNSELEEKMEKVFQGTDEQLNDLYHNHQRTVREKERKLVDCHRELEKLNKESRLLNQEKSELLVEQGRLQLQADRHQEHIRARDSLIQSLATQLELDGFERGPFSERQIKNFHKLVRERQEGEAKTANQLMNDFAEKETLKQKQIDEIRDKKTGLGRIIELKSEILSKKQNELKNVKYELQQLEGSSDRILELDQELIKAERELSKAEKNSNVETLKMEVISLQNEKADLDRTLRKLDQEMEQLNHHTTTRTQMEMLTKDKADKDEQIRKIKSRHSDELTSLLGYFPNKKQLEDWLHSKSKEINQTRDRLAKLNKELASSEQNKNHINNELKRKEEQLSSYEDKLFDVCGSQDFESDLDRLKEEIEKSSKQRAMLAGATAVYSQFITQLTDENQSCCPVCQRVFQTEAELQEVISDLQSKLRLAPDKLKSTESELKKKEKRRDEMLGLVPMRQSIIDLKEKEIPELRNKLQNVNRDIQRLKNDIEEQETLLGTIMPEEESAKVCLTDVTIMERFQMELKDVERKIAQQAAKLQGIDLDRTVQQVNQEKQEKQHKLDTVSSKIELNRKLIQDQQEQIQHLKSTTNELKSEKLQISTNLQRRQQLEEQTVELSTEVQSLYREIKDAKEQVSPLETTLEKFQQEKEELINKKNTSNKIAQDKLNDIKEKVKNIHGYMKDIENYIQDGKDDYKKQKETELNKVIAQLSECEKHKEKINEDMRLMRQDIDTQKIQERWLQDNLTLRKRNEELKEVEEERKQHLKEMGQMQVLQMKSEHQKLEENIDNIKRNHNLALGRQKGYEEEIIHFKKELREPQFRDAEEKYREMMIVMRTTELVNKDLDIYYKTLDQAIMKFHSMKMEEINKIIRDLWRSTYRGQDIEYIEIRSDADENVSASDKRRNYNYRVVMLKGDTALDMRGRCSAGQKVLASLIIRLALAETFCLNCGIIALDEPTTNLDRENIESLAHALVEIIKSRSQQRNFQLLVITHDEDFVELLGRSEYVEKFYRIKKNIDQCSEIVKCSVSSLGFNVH

Experiments:
[1] = target: p97 (endogenous, HEK293) (human (endogenous in HEK293)) (UniProt P55072); assay: co-IP; endogenous p97 precipitated with p97 antibody (Proteintech 10736-1-AP) and protein A magnetic beads from digested chromatin fraction of HEK293 cells; with or without IR (10 Gy); Western blot
[2] = target: p97-E578Q-Strep (dominant-negative, substrate-trapping p97 variant) (UniProt P55072); assay: co-IP; DOX-induced p97-EQ-Strep isolated with MagStrep type3 XT beads from benzonase/RNase-digested chromatin fraction of HEK293 Flp-In cells; with or without IR (10 Gy); Western blot
HA-MRE11 = target: T1, HA-MRE11 (UniProt P49959); assay: co-IP; HA-MRE11 precipitated with anti-HA magnetic beads from benzonase/RNase-digested chromatin fraction of T24 cells; with or without CB-5083 (10 uM) and IR (10 Gy); Western blot
T1 sequence: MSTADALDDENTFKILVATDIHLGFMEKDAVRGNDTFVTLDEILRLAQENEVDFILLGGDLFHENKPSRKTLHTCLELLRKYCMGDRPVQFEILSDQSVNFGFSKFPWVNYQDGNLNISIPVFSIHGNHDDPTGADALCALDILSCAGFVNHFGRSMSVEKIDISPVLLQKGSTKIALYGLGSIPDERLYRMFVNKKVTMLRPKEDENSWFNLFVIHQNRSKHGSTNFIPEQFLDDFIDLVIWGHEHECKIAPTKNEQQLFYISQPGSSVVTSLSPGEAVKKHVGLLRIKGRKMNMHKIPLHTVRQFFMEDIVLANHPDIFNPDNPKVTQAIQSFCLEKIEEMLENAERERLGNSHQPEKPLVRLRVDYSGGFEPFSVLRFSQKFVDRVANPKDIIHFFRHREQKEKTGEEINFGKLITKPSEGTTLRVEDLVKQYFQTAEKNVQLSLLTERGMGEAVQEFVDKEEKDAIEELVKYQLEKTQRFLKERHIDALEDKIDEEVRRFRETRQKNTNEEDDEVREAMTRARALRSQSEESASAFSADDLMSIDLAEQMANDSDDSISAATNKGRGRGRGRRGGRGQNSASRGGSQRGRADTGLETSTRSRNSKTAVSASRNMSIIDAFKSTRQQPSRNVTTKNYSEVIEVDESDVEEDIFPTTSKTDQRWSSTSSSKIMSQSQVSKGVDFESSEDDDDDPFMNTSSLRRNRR

Row | binding (HA-MRE11) | Substance | binding [1] | binding [2]
1 |  | NBS1 (endogenous, HEK293) (from UniProt O60934 1-754) | binds | 
2 |  | RAD50 (endogenous, HEK293) (from UniProt Q92878 1-1312) | binds | binds
3 | binds | p97 (endogenous, T24) (from UniProt P55072 1-806) (enzyme) |  | 
